Reference: article PMC3218940
Results are given in words; binding and its absence hold for the method and conditions named. Binding seen in cells or lysates may run through a third protein. Some entries that bind do so weakly or less than the wild type. Each block holds one binder with its values, some of them ahead of it.

Protein sequences, listed by entry. Tags and fused reporters are not part of them.
UniProt P08047: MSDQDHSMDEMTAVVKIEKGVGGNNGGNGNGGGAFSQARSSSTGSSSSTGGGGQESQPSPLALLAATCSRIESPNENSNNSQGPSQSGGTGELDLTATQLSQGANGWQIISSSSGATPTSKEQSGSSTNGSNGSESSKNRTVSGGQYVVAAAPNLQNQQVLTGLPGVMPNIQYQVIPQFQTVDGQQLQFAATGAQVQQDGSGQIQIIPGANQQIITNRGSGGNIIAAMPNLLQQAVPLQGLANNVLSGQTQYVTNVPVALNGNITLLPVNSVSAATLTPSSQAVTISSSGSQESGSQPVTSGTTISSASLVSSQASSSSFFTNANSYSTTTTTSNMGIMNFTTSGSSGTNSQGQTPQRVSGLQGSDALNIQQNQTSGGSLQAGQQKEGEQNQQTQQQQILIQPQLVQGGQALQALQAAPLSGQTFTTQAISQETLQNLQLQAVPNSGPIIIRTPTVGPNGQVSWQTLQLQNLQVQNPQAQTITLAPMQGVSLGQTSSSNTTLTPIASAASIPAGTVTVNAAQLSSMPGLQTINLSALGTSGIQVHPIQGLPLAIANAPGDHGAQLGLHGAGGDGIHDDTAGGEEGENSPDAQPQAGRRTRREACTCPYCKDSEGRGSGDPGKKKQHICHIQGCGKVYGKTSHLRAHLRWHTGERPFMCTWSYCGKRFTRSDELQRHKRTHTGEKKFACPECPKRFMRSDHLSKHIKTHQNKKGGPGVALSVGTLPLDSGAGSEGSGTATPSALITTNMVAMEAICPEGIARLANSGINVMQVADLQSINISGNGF

Experiments:
[1] = target: T1, topoisomerase IIα (human (endogenous in HME cells)), P11388; experiment: co-IP; total cellular proteins of sonicated HME cells synchronised in G0/G1, S, G2/M and M/G1; immunoprecipitated with anti-Cdc7, anti-geminin, anti-Sp1 (negative control) or anti-TopoIIα antibodies, then immunoblotted; settings: remark: other sources report otherwise
T1 chain: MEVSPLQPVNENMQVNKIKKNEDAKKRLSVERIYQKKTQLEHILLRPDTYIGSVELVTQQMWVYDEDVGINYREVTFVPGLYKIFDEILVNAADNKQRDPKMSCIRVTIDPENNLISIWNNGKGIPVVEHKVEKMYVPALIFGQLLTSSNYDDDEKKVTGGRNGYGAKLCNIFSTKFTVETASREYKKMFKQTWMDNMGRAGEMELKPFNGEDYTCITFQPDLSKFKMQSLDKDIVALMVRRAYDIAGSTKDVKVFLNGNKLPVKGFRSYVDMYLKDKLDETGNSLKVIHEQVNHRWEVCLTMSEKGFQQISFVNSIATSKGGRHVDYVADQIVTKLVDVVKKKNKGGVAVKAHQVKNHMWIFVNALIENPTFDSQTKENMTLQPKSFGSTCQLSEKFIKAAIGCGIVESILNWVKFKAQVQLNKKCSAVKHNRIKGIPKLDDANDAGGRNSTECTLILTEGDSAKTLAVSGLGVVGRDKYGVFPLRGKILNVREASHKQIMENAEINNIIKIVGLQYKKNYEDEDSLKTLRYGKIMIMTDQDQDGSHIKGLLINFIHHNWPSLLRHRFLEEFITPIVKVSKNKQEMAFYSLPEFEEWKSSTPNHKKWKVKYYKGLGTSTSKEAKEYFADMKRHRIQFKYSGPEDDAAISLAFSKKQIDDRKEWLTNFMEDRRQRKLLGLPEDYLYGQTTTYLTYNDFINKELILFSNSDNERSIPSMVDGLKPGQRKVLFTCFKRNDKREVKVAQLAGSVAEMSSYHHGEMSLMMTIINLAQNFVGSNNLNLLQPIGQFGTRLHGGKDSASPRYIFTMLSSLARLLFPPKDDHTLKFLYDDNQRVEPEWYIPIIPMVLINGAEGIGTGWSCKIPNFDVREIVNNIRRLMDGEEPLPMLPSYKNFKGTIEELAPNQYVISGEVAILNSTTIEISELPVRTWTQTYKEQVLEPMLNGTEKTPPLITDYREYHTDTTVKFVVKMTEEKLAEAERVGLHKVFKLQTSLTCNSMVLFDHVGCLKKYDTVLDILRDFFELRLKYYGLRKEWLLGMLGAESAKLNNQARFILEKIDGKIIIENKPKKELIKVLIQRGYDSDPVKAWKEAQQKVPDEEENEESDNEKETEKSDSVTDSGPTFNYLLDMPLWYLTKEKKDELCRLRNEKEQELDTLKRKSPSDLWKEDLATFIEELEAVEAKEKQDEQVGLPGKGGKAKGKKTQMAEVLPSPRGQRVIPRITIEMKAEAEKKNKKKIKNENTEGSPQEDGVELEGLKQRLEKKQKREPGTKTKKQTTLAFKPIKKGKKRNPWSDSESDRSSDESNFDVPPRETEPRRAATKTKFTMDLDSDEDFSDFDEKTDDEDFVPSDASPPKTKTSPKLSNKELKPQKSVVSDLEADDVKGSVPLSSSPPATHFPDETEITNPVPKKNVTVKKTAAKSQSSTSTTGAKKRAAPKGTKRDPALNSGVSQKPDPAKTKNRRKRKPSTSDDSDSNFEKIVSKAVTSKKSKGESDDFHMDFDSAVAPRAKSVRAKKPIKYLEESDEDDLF

[2] = target: Sp1 (human (endogenous in HME cells)) (UniProt P08047); experiment: co-IP; 1 mg chromatin of HME or induced Gem9 cells (72 hours), also of G2/M, M or M/G1 cells; immunoprecipitated with anti-geminin, anti-Sp1 or anti-TopoIIα antibody, then immunoblotted
[3] = target: T2, geminin (human (endogenous in HME cells)) (UniProt O75496); experiment: as above
T2 sequence: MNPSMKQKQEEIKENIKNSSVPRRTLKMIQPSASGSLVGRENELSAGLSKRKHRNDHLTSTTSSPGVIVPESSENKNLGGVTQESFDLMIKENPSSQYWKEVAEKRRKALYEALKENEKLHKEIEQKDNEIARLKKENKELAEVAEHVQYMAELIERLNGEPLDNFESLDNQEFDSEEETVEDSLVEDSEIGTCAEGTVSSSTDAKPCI

[4] = target: topoisomerase IIα (human (endogenous in HME cells)) (UniProt P11388); experiment: as above
[5] = target: Sp1 (human (endogenous in HME cells)) (UniProt P08047); experiment: co-IP; total cellular proteins of sonicated HME cells synchronised in G0/G1, S, G2/M and M/G1; immunoprecipitated with anti-Cdc7, anti-geminin, anti-Sp1 (negative control) or anti-TopoIIα antibodies, then immunoblotted
[6] = target: cell division cycle 7 (human (endogenous in HME cells)) (UniProt O00311); experiment: as above
[7] = target: topoisomerase IIα (human (endogenous in HME cells)) (UniProt P11388); experiment: as above

binding [1]: no binding
B1: cell division cycle 7, O00311 1-574 (enzyme)
chain: MEASLGIQMDEPMAFSPQRDRFQAEGSLKKNEQNFKLAGVKKDIEKLYEAVPQLSNVFKIEDKIGEGTFSSVYLATAQLQVGPEEKIALKHLIPTSHPIRIAAELQCLTVAGGQDNVMGVKYCFRKNDHVVIAMPYLEHESFLDILNSLSFQEVREYMLNLFKALKRIHQFGIVHRDVKPSNFLYNRRLKKYALVDFGLAQGTHDTKIELLKFVQSEAQQERCSQNKSHIITGNKIPLSGPVPKELDQQSTTKASVKRPYTNAQIQIKQGKDGKEGSVGLSVQRSVFGERNFNIHSSISHESPAVKLMKQSKTVDVLSRKLATKKKAISTKVMNSAVMRKTASSCPASLTCDCYATDKVCSICLSRRQQVAPRAGTPGFRAPEVLTKCPNQTTAIDMWSAGVIFLSLLSGRYPFYKASDDLTALAQIMTIRGSRETIQAAKTFGKSILCSKEVPAQDLRKLCERLRGMDSSTPKLTSDIQGHASHQPAISEKTDHKASCLVQTPPGQYSGNSFKKGDSNSCEHCFDEYNTNLEGWNEVPDEAYDLLDKLLDLNPASRITAEEALLHPFFKDMSL

binding [2]: no binding
binding [3]: binds
binding [4]: no binding
B2: sentrin-specific protease SENP2 (enzyme, UniProt Q9HC62 1-589)
chain: MYRWLVRILGTIFRFCDRSVPPARALLKRRRSDSTLFSTVDTDEIPAKRPRLDCFIHQVKNSLYNAASLFGFPFQLTTKPMVTSACNGTRNVAPSGEVFSNSSSCELTGSGSWNNMLKLGNKSPNGISDYPKIRVTVTRDQPRRVLPSFGFTLNSEGCNRRPGGRRHSKGNPESSLMWKPQEQAVTEMISEESGKGLRRPHCTVEEGVQKEEREKYRKLLERLKESGHGNSVCPVTSNYHSSQRSQMDTLKTKGWGEEQNHGVKTTQFVPKQYRLVETRGPLCSLRSEKRCSKGKITDTETMVGIRFENESRRGYQLEPDLSEEVSARLRLGSGSNGLLRRKVSIIETKEKNCSGKERDRRTDDLLELTEDMEKEISNALGHGPQDEILSSAFKLRITRGDIQTLKNYHWLNDEVINFYMNLLVERNKKQGYPALHVFSTFFYPKLKSGGYQAVKRWTKGVNLFEQEIILVPIHRKVHWSLVVIDLRKKCLKYLDSMGQKGHRICEILLQYLQDESKTKRNSDLNLLEWTHHSMKPHEIPQQLNGSDCGMFTCKYADYISRDKPITFTQHQMPLFRKKMVWEILHQQLL

binding [5]: no binding
binding [6]: no binding
binding [7]: binds
B3: geminin (protein, UniProt O75496 1-209)
chain: T2 sequence
